In patent US20240018213A1:
No constants are given. Whether binding was seen depends on the method and setting. A result given as binding can be weak or reduced; the word gives no strength.

Target: BSA (negative) (bovine)
Experiment: Open SPR; BSA immobilized as negative control, Tan 6 injected neat (2.2 µM), 1:10 (0.22 µM) and HBS buffer only

binding: binds
B1: MuDLL1.DSL-EGF12.Tan 6 (NL 99) (ligand)
chain: MAAHHHHHHGGENLYFQGFVCDEHYYGEGCSVFCRPRDDAFGHFTCGDRGEKMCDPGWKGQYCTDPICLPGCDDQHGYCDKPGECKCRVGWQGRYCDECIRYPGCLHGTCQQPWQCNCQEGWGGLFCNQGSSGSSGFVCDEHYYGEGCSVFCRPRDDAFGHFTCGDRGEKMCDPGWKGQYCTDPICLPGCDDQHGYCDKPGECKCRVGWQGRYCDECIRYPGCLHGTCQQPWQCNCQEGWGGLFCNQGSSGSSGFVCDEHYYGEGCSVFCRPRDDAFGHFTCGDRGEKMCDPGWKGQYCTDPICLPGCDDQHGYCDKPGECKCRVGWQGRYCDECIRYPGCLHGTCQQPWQCNCQEGWGGLFCNQGSSGSSGFVCDEHYYGEGCSVFCRPRDDAFGHFTCGDRGEKMCDPGWKGQYCTDPICLPGCDDQHGYCDKPGECKCRVGWQGRYCDECIRYPGCLHGTCQQPWQCNCQEGWGGLFCNQGSSGSSGFVCDEHYYGEGCSVFCRPRDDAFGHFTCGDRGEKMCDPGWKGQYCTDPICLPGCDDQHGYCDKPGECKCRVGWQGRYCDECIRYPGCLHGTCQQPWQCNCQEGWGGLFCNQGSSGSSGFVCDEHYYGEGCSVFCRPRDDAFGHFTCGDRGEKMCDPGWKGQYCTDPICLPGCDDQHGYCDKPGECKCRVGWQGRYCDECIRYPGCLHGTCQQPWQCNCQEGWGGLFCNQ
